Patent publication US20110152202A1
These are yes or no findings as the source states them, for the method shown. Some entries that bind do so weakly or less than the wild type.

Sequences of proteins named here, by UniProt entry; tags and fusion partners are left off. Residues count along the entry.
UniProt P08101, residues 30-330: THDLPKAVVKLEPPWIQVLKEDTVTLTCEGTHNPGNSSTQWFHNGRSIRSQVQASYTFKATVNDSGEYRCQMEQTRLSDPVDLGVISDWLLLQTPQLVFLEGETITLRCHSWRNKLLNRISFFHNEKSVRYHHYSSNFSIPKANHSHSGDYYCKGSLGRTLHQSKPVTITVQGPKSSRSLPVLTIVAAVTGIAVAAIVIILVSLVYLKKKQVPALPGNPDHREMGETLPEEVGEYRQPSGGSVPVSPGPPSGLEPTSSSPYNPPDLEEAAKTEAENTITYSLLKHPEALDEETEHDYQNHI
UniProt P12318, residues 34-217: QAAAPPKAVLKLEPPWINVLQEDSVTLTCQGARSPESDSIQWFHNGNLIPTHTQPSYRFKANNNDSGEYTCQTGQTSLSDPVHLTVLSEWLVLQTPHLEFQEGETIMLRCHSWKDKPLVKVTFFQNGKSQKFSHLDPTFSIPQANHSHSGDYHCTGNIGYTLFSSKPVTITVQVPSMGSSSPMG

Assays:
[1] = molecular target: mouse FcγRIIb on mouse peritoneal macrophages (from FcR γ-chain-/- mice) (mouse) (UniProt P08101); assay: two-color flow cytometry on mouse peritoneal macrophages
human FcγRIIa (human) = human FcγRIIa (human) (UniProt P12318); assay: SPR, CRP as analyte on immobilized human FcγR; same SPR experiment as M8; Kd above the highest measurable limit, weak binding, not shown non-binding
[2] = molecular target: mouse FcγRIIb on mouse peritoneal macrophages (from FcR γ-chain-/- mice) (mouse) (UniProt P08101); assay: two-color flow cytometry of CRP bound to mouse peritoneal macrophages expressing FcγRIIb (from FcR γ-chain-/- mice); panel title 'Binding to FcγRII'

binding [1] | binding (human FcγRIIa (human)) | binding [2] | Binder
binds | no binding (tested: 16.8 µM) | binds | Y175L mutant CRP (tyrosine 175 replaced by leucine) (ligand) QTDMSRKAFVFPKESDTSYVSLKAPLTKPLKAFTVCLHFYTELSSTRGYSIFSYATKRQDNEILIFWSKDIGYSFTVGGSEILFEVPEVTVAPVHICTSWESASGIVEFWVDGKPRVRKSLKKGYTVGAEASIILGQEQDSFGGNFEGSQSLVGDIGNVNMWDFVLSPDEINTILLGGPFSPNVLNWRALKYEVQGEVFTKPQLWP
 |  | binds | C-reactive protein (human CRP) (ligand) QTDMSRKAFVFPKESDTSYVSLKAPLTKPLKAFTVCLHFYTELSSTRGYSIFSYATKRQDNEILIFWSKDIGYSFTVGGSEILFEVPEVTVAPVHICTSWESASGIVEFWVDGKPRVRKSLKKGYTVGAEASIILGQEQDSFGGNFEGSQSLVGDIGNVNMWDFVLSPDEINTIYLGGPFSPNVLNWRALKYEVQGEVFTKPQLWP
